Patent publication US20180092962

Molecular target: T1, His-sLZIP (human small leucine zipper protein) (Homo sapiens) (UniProt O43889)
T1 sequence: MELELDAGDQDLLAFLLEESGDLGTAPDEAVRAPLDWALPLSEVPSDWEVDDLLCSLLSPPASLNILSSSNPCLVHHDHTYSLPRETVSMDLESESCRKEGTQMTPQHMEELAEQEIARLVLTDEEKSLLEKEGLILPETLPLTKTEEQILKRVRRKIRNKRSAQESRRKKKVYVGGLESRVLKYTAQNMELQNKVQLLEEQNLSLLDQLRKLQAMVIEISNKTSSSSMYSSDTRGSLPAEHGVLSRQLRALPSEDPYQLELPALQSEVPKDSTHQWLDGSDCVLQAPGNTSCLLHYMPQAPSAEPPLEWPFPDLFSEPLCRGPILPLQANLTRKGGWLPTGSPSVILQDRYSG
Assay: EMSA
Conditions: purified recombinant protein, protein details: His tag (pET-28a(+), E. coli BL21), label: 5'-32P

Row | Sequence | binding result (dose-dependent, supershifted by anti-His, competed by 100-fold unlabeled CREB oligo, poly(dI-dC), room temperature) | binding result (AT to GG mutation in CRE abolishes binding, variant of #2 CREB/AP-1 probe, FABP4 enhancer)
1 | GAAGGGATTGATGTCAGCAGGA (double strand) [#2 CREB/AP-1 probe, FABP4 enhancer] | binds | 
2 | GAAGGGATTGGGGTCAGCAGGA (double strand) [CREB mutant probe] |  | no binding

The exact form of at least one protein or probe is not confirmed. Negatives hold for the conditions tested. Tags and fusion partners may be left off the protein sequences shown.
